# Reference: PubChem BioAssay AID1487 (National Center for Advancing Translational Sciences (NCATS), 2009)
# Some of the results follow. Shown are side measurements of this screen, not its main read-out; they come without a call. The list favours compounds with an active or inconclusive main result. Words in brackets tell the shape of the fitted curve; partial curves, single points and poor fits give uncertain potencies.
# Assay: qHTS Assay for Modulators of Lamin A Splicing
# Conditions: HeLa LMNA splicing GFP/RFP minigene ratio, 48 h
# Procedure, shortened: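 S3 HeLa cells stably expressing lamin A-EGFP splicing minigene plus DsRed2, 600 cells/well, 48 h compound exposure at 37C. Laser-scanning cytometry; analysed as GFP (500-530 nm)/RFP (575-640 nm) total intensity ratio; 0.5% DMSO vehicle.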
# [1] = measured here: GFP splicing reporter channel
# [2] = measured here: RFP viability control channel
Structure (SMILES),AC50 [1],AC50 [2]
CCCCC/C(C=O)=C/c1ccccc1,"0.00447 µM [falling, full curve, poor fit]","0.355 µM [falling, full curve, poor fit]"
COc1cccc(Nc2ncc3nc(-c4ccc(Cl)cc4)c(=O)n(C[C@H]4CCCO4)c3n2)c1,"3.16 µM [falling, full curve]",
Cc1ccc2oc(=O)c3cc(C(=O)Nc4cc(-c5cccc(F)c5)no4)sc3c2c1,,"3.98 µM [rising, single point]"
Cc1nn(Cc2ccc(Cl)cc2)c(C)c1NC(=O)CSc1n[nH]c(C)c1[N+](=O)[O-],,"35.5 µM [rising, single point]"
N#C/C(=N\Nc1cccc2ccccc12)c1nnc2n1CCCCC2,,"0.0891 µM [rising, full curve, poor fit]"
COc1cc(Cl)ccc1NC(=O)COc1ccccc1C(=O)N1CCN(c2ccc(O)cc2)CC1,,"11.2 µM [rising, partial curve]"
CCOc1cc(/C=N/NC(=O)Cn2nc([N+](=O)[O-])cc2C)ccc1OCc1ccc(F)cc1,,"0.0355 µM [falling, single point]"
Cc1cc(C)c2nc(N(Cc3cccnc3)C(=O)c3cccs3)sc2c1,"0.794 µM [falling, full curve, poor fit]",
CN(C)Cc1cc(C(C)(C)C)c(O)c(C(C)(C)C)c1,,"12.6 µM [rising, single point]"
COc1cccc(C2=NOC(C(=O)Nc3cccc(C(C)=O)c3)C2)c1OC (centres undefined),"11.2 µM [rising, single point]","14.1 µM [rising, single point]"
COc1ccc2[nH]cc(CCNc3ccnc(-c4ccc(N(C)C)cc4)n3)c2c1,"0.631 µM [falling, full curve]","0.631 µM [falling, full curve]"
S=C(NCc1ccncc1)Nc1ccc(Cl)cc1Cl,,"35.5 µM [rising, single point]"
CCn1cc(S(=O)(=O)c2ccccc2)c(=O)c2cc(F)c(N3CCN(c4ccccc4)CC3)cc21,"0.282 µM [falling, single point]",
CCOc1ccc(OCc2ccc(C(=O)NCc3ccncc3)o2)cc1,,"11.2 µM [rising, partial curve]"
C#C[C@]1(OC(C)=O)CC[C@H]2[C@@H]3CCC4=C[C@@H](OC(C)=O)CC[C@@H]4[C@H]3CC[C@@]21C,"35.5 µM [rising, single point]",
Cc1cc(C)n2nc(SCC(=O)N(CC(C)C)c3c(N)n(CC(C)C)c(=O)[nH]c3=O)nc2n1,,"35.5 µM [rising, single point]"

# 2 of these compounds in another layout:
Structure (SMILES)	AC50 [1]	AC50 [2]
COc1cccc(C2=NOC(C(=O)Nc3cccc(C(C)=O)c3)C2)c1OC (centres undefined)	11.2 µM [rising, single point]	14.1 µM [rising, single point]
CCn1cc(S(=O)(=O)c2ccccc2)c(=O)c2cc(F)c(N3CCN(c4ccccc4)CC3)cc21	0.282 µM [falling, single point]	
